Results: PMC5739749
No constants are given. Whether binding was seen depends on the method and setting. Binding seen in cells or lysates may run through a third protein. Binding can be weak; no strength is given. For some assays here: Sequences can lack the tags named with a protein.

Protein sequences, listed by entry. Tags and fused reporters are not part of them.
UniProt P54098: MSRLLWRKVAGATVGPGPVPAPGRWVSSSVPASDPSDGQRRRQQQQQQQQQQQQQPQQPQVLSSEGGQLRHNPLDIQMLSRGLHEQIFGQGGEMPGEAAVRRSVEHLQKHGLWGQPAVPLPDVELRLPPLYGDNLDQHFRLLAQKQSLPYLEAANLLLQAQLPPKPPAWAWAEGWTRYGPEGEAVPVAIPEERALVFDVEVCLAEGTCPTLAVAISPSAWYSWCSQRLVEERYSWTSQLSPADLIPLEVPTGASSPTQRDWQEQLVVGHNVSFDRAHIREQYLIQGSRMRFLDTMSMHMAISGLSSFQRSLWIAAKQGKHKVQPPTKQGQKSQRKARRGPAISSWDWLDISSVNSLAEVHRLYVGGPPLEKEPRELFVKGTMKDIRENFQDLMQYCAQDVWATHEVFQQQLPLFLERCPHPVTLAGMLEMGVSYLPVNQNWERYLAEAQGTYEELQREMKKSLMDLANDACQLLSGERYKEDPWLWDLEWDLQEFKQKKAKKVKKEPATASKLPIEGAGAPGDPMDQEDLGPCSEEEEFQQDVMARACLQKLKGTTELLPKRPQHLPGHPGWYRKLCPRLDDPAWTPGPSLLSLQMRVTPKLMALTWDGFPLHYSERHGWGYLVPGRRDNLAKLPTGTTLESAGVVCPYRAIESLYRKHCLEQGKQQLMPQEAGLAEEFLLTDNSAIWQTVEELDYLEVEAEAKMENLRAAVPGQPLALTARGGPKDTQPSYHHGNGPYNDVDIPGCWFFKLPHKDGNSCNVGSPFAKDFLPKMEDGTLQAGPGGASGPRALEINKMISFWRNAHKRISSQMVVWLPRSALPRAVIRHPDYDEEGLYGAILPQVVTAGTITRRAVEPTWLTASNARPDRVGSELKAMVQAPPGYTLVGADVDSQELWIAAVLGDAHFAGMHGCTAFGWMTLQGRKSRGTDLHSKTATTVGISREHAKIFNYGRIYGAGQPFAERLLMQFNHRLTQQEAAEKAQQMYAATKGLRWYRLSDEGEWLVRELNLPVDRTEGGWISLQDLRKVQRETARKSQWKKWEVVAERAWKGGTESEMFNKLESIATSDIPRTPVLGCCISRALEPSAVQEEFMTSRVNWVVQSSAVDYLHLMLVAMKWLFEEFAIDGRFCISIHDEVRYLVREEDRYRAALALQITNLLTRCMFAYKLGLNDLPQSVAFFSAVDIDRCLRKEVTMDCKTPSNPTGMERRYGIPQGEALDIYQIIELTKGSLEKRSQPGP

Columns and labels:
[1] = target: Myc-tagged TTC3ΔTPR (deletion of the TPR motifs) (human) (UniProt P53804); test: co-IP; 293T cells co-transfected; lysed in RIPA buffer; TTC3 immunoprecipitated by Myc antibody (9E10), POLG or Hsp70 by Flag antibody (M2); Protein G beads, 4°C; immunoblot
[2] = target: T1, Myc-TTC3(1∼650aa) (human) (UniProt P53804); test: as above
T1 sequence: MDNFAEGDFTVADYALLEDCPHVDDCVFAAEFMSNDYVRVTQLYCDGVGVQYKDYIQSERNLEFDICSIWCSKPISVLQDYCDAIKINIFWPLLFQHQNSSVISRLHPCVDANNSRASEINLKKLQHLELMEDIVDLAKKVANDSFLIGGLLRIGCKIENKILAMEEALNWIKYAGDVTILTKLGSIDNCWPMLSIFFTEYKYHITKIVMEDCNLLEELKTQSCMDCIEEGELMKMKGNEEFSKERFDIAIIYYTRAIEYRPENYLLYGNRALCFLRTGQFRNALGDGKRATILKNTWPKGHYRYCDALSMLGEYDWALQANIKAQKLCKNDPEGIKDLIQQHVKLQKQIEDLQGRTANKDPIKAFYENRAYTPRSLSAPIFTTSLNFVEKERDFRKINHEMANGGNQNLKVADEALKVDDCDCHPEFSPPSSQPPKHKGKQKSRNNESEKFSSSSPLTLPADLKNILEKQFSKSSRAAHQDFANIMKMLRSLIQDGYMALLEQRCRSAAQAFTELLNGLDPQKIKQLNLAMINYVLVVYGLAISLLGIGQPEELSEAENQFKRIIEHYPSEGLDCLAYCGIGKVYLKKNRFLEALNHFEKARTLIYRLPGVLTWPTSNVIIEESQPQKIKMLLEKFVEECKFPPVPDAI

With “3xFlag-tagged full-length POLG (p3xFLAG-CMV10) (from UniProt P54098 1-1239)” the binding [1] was “binds”.
Flag-Hsp70 was tested, and the binding [2] was “binds”.
